This passage reports binding results from paper PMC11115967.

No constants are given. Whether binding was seen depends on the method and setting. In cells and extracts the contact can be indirect. Binding calls can cover weak binding; strength is not graded here. Sequences can lack the tags named with a protein.

The experiment concerns the target T1, hexa-HA-tagged Prp4p (S. cerevisiae) (UniProt P20053).
T1 sequence: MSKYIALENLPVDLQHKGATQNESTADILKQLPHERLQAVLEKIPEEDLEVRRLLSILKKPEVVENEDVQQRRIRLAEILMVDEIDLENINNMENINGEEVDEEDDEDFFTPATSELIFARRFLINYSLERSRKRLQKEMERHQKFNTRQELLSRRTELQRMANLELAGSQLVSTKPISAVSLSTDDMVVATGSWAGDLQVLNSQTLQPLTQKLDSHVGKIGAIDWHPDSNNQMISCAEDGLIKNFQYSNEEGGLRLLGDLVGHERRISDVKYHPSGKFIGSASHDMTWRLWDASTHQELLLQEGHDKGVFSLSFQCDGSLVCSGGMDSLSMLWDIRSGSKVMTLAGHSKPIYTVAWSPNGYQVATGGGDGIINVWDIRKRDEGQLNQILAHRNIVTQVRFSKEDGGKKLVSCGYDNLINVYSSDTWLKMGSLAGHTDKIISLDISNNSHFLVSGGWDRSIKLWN
Briefly: co-IP; immunopurification of the spliceosome: 1 mg extract of UV-irradiated WT (yBD608) and rrp6-Δ (yBD614) cells with genomically hexa-HA-tagged Prp4p, anti-HA antibody, protein A-agarose, 4°C; western blot.

Regarding Prp80p (S. cerevisiae), the binding result is “binds”.
